Assay results as given in paper PMC6620288.
These are yes or no findings as the source states them, for the method shown. Some entries that bind do so weakly or less than the wild type. Sequences can lack the tags named with a protein.

The chains behind the UniProt entries cited, without tags or fusion partners.
UniProt Q9NNX6: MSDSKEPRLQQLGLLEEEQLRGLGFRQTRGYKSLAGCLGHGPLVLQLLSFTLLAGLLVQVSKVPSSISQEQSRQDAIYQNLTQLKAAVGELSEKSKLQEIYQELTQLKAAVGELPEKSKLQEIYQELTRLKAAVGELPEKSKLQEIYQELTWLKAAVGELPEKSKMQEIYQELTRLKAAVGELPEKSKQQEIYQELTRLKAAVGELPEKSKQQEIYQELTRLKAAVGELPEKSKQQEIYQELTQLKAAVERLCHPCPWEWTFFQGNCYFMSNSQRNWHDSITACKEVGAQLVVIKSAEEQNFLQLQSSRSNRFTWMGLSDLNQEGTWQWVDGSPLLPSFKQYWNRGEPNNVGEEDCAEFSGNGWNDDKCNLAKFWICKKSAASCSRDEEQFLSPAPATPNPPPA

Biological target: human DC-SIGN (human) (UniProt Q9NNX6)
Test: flow cytometry on cells; soluble ligand or IgG1 glycoform (10 μg/ml) on transfected HEK Freestyle cells, 37 °C, one hour; 20 mM HEPES, 1 mM CaCl2, 1 mM MgCl2, 1% BSA, pH 7.4; detection by label or labelled secondary reagent; only the binder purified

binding: binds
B1: recombinant His-tagged human ICAM-3 (ligand, UniProt P32942 30-485)
chain: QEFLLRVEPQNPVLSAGGSLFVNCSTDCPSSEKIALETSLSKELVASGMGWAAFNLSNVTGNSRILCSVYCNGSQITGSSNITVYRLPERVELAPLPPWQPVGQNFTLRCQVEDGSPRTSLTVVLLRWEEELSRQPAVEEPAEVTATVLASRDDHGAPFSCRTELDMQPQGLGLFVNTSAPRQLRTFVLPVTPPRLVAPRFLEVETSWPVDCTLDGLFPASEAQVYLALGDQMLNATVMNHGDTLTATATATARADQEGAREIVCNVTLGGERREARENLTVFSFLGPIVNLSEPTAHEGSTVTVSCMAGARVQVTLDGVPAAAPGQPAQLQLNATESDDGRSFFCSATLEVDGEFLHRNSSVQLRVLYGPKIDRATCPQHLKWKDKTRHVLQCQARGNPYPELRCLKEGSSREVPVGIPFFVNVTHNGTYQCQASSSRGKYTLVVVMDIEAGSSH
